Measured values published in paper PMC8255618.
Results are given in words; binding and its absence hold for the method and conditions named. In cells and extracts the contact can be indirect. Some binding calls cover weakened binding; strength is not graded here.

The chains behind the UniProt entries cited, without tags or fusion partners. Where a name states a change or a piece, a line headed by the entry shows the natural chain unless it says otherwise. A line that says so, or that is headed by a name, gives the form on record, which may keep a tag or linker. Residues count along the entry.
HA-tagged wild type Pfn1 (profilin-1) (P07737, residues 2-140): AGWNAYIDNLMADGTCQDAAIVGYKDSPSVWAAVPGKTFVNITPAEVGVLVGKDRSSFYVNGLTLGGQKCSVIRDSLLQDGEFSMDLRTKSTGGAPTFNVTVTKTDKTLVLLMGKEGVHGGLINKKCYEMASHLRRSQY
HA-tagged Pfn1(S71A) (P07737, form named): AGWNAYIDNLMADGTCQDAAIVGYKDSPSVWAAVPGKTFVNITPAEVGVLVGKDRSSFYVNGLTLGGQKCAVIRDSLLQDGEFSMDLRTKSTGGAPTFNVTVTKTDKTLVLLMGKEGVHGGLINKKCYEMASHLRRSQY
HA-tagged Pfn1(S71D) (P07737, form named): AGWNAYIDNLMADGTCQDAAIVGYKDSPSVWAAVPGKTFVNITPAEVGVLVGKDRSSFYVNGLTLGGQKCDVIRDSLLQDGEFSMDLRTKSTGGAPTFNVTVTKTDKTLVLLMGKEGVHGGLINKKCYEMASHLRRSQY
UniProt P50552: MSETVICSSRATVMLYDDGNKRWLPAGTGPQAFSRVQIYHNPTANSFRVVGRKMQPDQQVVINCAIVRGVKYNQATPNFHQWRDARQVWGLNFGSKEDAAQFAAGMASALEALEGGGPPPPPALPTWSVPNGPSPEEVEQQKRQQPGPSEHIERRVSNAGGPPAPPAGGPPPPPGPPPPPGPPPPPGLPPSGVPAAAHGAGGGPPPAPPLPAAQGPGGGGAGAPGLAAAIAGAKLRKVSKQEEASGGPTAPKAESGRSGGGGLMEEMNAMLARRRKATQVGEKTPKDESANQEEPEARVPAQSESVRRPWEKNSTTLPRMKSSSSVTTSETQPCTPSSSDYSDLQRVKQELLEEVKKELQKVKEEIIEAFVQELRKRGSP

Assays:
Assay in all cases: co-IP; HEK293T transfected with HA-tagged Pfn1 (WT, S71A or S71D), lysed by RIPA buffer, immunoprecipitation with anti-HA antibody, Western blot for actin and VASP
[1] = molecular target: HA-tagged Pfn1(S71A) (human) (UniProt P07737)
[2] = molecular target: HA-tagged Pfn1(S71D) (human) (UniProt P07737)
[3] = molecular target: HA-tagged wild type Pfn1 (profilin-1) (human) (UniProt P07737)

Measured: binding

vasodilator-stimulated phosphoprotein (VASP) (from UniProt P50552 1-380)
binds: [1] | [2] | [3]
